Reference: patent US7615102B2, “Corrosion and gas hydrate inhibitors with an increased biological degradability and a reduced toxicity” (Clariant Produkte (Deutschland) GmbH, priority 2004, dated 2009)

Key:
[1] = Shell wheel test (corrosion inhibition); conditions: 50 ppm of a 40% solution of the inhibitor; salt water/petroleum mixture, pH 3.5, 40 rpm, 70° C., 24 hours; from mass decrease of coupons based on a blank value
[2] = LPR test (corrosion inhibition, analogous to ASTM D 2776)

Substance	ø Protection % [1]	Protection after 10 min [2]	Protection after 30 min [2]	Protection after 60 min [2]
Dodecenyl-/tetradecenylsuccinic Acid N,N-dibutylamino-N-tri(ethoxy)ethyl Ester [Compound from example 4]	78.4%	52.4%	66.8%	78.8%
Pentapropylenesuccinic Acid N,N-dibutylamino-N-ethyl Ester [Compound from example 2]	79.3%	50.3%	65.7%	79.3%
Pentapropylenesuccinic Acid N,N-dibutylamino-N-tri(ethoxy)ethyl Ester [Compound from example 7]	81.3%	55.8%	70.1%	83.5%
